The list is a part of this screen's results and no random one: it gathers some chemical classes. Not every dose and run of a compound is shown. T/C is the treated group as % of the vehicle group. Some doses have a count of surviving animals in place of a T/C: the source files T/C as zero there, which appears to mark a toxic dose or a test without result, not a measured value. Some doses without a T/C left all or most animals alive at the check, yet need not have been tolerated: the source hardly ever lists a survival T/C far under the control, and the zero likely stands for such cases as well. Counts of survivors are from the toxicity check (mostly the fifth day) where no day follows; animals may have died later. Schedules are NCI's codes, read here as Q, the interval in days (D) or hours (H), X, the number of doses. Where survival is the endpoint, the PubChem record calls one and a half times the control and up active, and a quarter to a half above the control has no call in these data; cut-offs in other NCI protocols can differ. Some doses were run more than once; their values stand side by side, smallest first. Some T/C values are marked as having no survivor count here; that says nothing about deaths at the dose. Some T/C values carry the count of animals alive at the toxicity check (mostly the fifth day); where neither a count nor a note follows, no animal had died by that day. Some complexes appear as separate parts, the way the source draws them; their charges need not add up.
System: CD2F1 mice, L1210 leukemia ip, survival T/C
Assay: NCI In Vivo Anticancer Drug Screen. Data for tumor model L1210 Leukemia (intraperitoneal) in CD2F1 (CDF1) mice
Conditions: T/C endpoint: mean survival time, higher T/C = longer survival
Experimental: The antitumor activity of compounds was measured in mice bearing transplantable tumors. Survival or tumor size were measured and the results are expressed as the measurement made in the treated group (T) divided by the measurement made in the vehicle treated control group (C). The tumor model used in this assay is L1210 Leukemia (intraperitoneal) in CD2F1 (CDF1) mice

[1] = dose: 6.25 mg/kg/injection, schedule: Q01DX009 (ip), vehicle: Klucel (hydroxypropylcellulose) (HPC)
[2] = dose: 12.5 mg/kg/injection, schedule: Q01DX009 (ip), vehicle: Klucel (hydroxypropylcellulose) (HPC)
[3] = dose: 25.0 mg/kg/injection, schedule: Q01DX009 (ip), vehicle: Klucel (hydroxypropylcellulose) (HPC)
[4] = dose: 50.0 mg/kg/injection, schedule: Q01DX009 (ip), vehicle: Klucel (hydroxypropylcellulose) (HPC)
[5] = dose: 100.0 mg/kg/injection, schedule: Q01DX009 (ip), vehicle: Klucel (hydroxypropylcellulose) (HPC)
[6] = dose: 200.0 mg/kg/injection, schedule: Q01DX009 (ip), vehicle: Klucel (hydroxypropylcellulose) (HPC)
[7] = dose: 15.62 mg/kg/injection, schedule: Q01DX001 (ip), vehicle: DMSO
[8] = dose: 31.25 mg/kg/injection, schedule: Q01DX001 (ip), vehicle: DMSO
[9] = dose: 62.5 mg/kg/injection, schedule: Q01DX001 (ip), vehicle: DMSO
[10] = dose: 125.0 mg/kg/injection, schedule: Q01DX001 (ip), vehicle: DMSO
[11] = dose: 250.0 mg/kg/injection, schedule: Q01DX001 (ip), vehicle: DMSO
[12] = dose: 500.0 mg/kg/injection, schedule: Q01DX001 (ip), vehicle: DMSO

With `CCCCOc1ccc(N(CCCl)CCCl)cc1` the T/C [1] was 105 and 110 % of control, the T/C [2] was 105 and 113 % of control and the T/C [3] was 110 and 116 % of control. For the same molecule, the T/C [4] was 128 and 137 % of control, the T/C [5] was 97 % of control and the survivor count [5] was 4 of 6. For the same molecule, the survivor count [6] was 2 of 8.
`ClCCN[PH+]1OCCCN1CCCl.ClCCN[PH+]1OCCCN1CCCl.[Cl][Pt][Cl]` (centres undefined) was tested, and the T/C (dose: 3.13 mg/kg/injection, schedule: Q04DX003 (ip), vehicle: distilled water + Tween-80) was 93 % of control, the T/C (dose: 6.25 mg/kg/injection, schedule: Q04DX003 (ip), vehicle: distilled water + Tween-80) was 93 % of control and the T/C (dose: 12.5 mg/kg/injection, schedule: Q04DX003 (ip), vehicle: distilled water + Tween-80) was 97 % of control. For the same molecule, the T/C (dose: 25.0 mg/kg/injection, schedule: Q04DX003 (ip), vehicle: distilled water + Tween-80) was 92 % of control, the T/C (dose: 50.0 mg/kg/injection, schedule: Q04DX003 (ip), vehicle: distilled water + Tween-80) was 92 % of control and the T/C (dose: 100.0 mg/kg/injection, schedule: Q04DX003 (ip), vehicle: distilled water + Tween-80) was 93 % of control. For the same molecule, the T/C (dose: 200.0 mg/kg/injection, schedule: Q04DX003 (ip), vehicle: distilled water + Tween-80) was 91 % of control [5 of 6 alive].
For `O=P1(N(CCCl)CCCl)NCC(CCO)O1` (centres undefined), the T/C [7] was 95 % of control, the T/C [8] was 103 % of control and the T/C [9] was 97 % of control. The T/C [10] was 104 % of control, the T/C [11] was 101 % of control and the T/C [12] was 117 % of control.
`CC(=O)C(C)COP(=O)(N(CCCl)CCCl)N1CC1` (centres undefined) was tested, and the T/C [7] was 104 % of control, the T/C (dose: 31.3 mg/kg/injection, schedule: Q01DX001 (ip), vehicle: DMSO) was 103 % of control and the T/C [9] was 108 % of control. For the same molecule, the T/C [10] was 129 % of control, the T/C [11] was 123 % of control [5 of 6 alive] and the survivor count [12] was 0 of 6.
In the case of `O=c1[nH]nc([N+](=O)[O-])[nH]1`, the T/C (dose: 100.0 mg/kg/injection, schedule: Q04DX003 (ip), vehicle: saline with Tween-80) is reported as 94 % of control [survivor count not shown], the T/C (dose: 200.0 mg/kg/injection, schedule: Q04DX003 (ip), vehicle: saline with Tween-80) is reported as 101 % of control [survivor count not shown] and the T/C (dose: 400.0 mg/kg/injection, schedule: Q04DX003 (ip), vehicle: saline with Tween-80) is reported as 100 % of control [survivor count not shown].
For `CN(C)CCOC(=O)C(O)(c1ccccc1)C1CCCCC1` (centres undefined), the T/C (dose: 75.0 mg/kg/injection, schedule: Q01DX001 (ip), vehicle: other) was 91 % of control and the T/C (dose: 150.0 mg/kg/injection, schedule: Q01DX001 (ip), vehicle: other) was 100 % of control.
With `O=P1(N(CCCl)CCCl)OCCCN1Cl` (centres undefined) the T/C (dose: 31.25 mg/kg/injection, schedule: Q01DX001 (ip), vehicle: distilled water + Tween-80) was 93 % of control, the T/C (dose: 62.5 mg/kg/injection, schedule: Q01DX001 (ip), vehicle: distilled water + Tween-80) was 96 % of control and the T/C (dose: 125.0 mg/kg/injection, schedule: Q01DX001 (ip), vehicle: distilled water + Tween-80) was 96 % of control. The T/C (dose: 250.0 mg/kg/injection, schedule: Q01DX001 (ip), vehicle: distilled water + Tween-80) was 109 % of control and the T/C (dose: 500.0 mg/kg/injection, schedule: Q01DX001 (ip), vehicle: distilled water + Tween-80) was 129 % of control.
With `CC(=O)NP(=O)(O)N(CCCl)CCCl.NC1CCCCC1` the T/C (dose: 15.63 mg/kg/injection, schedule: Q01DX001 (ip), vehicle: water) was 101 % of control [5 of 6 alive], the T/C (dose: 31.25 mg/kg/injection, schedule: Q01DX001 (ip), vehicle: water) was 104 % of control and the T/C (dose: 62.5 mg/kg/injection, schedule: Q01DX001 (ip), vehicle: water) was 108 % of control. For the same molecule, the T/C (dose: 125.0 mg/kg/injection, schedule: Q01DX001 (ip), vehicle: water) was 119 % of control, the T/C (dose: 250.0 mg/kg/injection, schedule: Q01DX001 (ip), vehicle: water) was 114 % of control and the T/C (dose: 500.0 mg/kg/injection, schedule: Q01DX001 (ip), vehicle: water) was 119 % of control. The T/C (dose: 1000.0 mg/kg/injection, schedule: Q01DX001 (ip), vehicle: water) was 135 % of control.
`NCCc1ccc(N(CCCl)CCCl)cc1` was tested, and the T/C (dose: 1.56 mg/kg/injection, schedule: Q01DX009 (ip), vehicle: Klucel (hydroxypropylcellulose) (HPC)) was 105 and 112 % of control, the T/C (dose: 3.12 mg/kg/injection, schedule: Q01DX009 (ip), vehicle: Klucel (hydroxypropylcellulose) (HPC)) was 109, 118, 126 % of control and the T/C [1] was 114, 121, 122, 143 % of control. The T/C [2] was 88 % of control, the survivor count [2] was 6 of 6 and the survivor count [3] was 2 of 6. For the same molecule, the survivor count [4] was 0 of 3, the survivor count [5] was 0 of 3 and the survivor count [6] was 0 of 3.
`N=C(N[N+](=O)[O-])N(CCN1CCN=C1N[N+](=O)[O-])N=O` was tested, and the T/C (dose: 100.0 mg/kg/injection, schedule: Q01DX009 (ip), vehicle: saline sonified) was 96 % of control, the T/C (dose: 200.0 mg/kg/injection, schedule: Q01DX009 (ip), vehicle: saline sonified) was 94 % of control and the T/C (dose: 400.0 mg/kg/injection, schedule: Q01DX009 (ip), vehicle: saline sonified) was 96 % of control.
With `COC(=O)/C(=C\c1ccccc1)CN1CCCCC1.O=[N+]([O-])c1cc([N+](=O)[O-])c(O)c([N+](=O)[O-])c1` the T/C (dose: 100.0 mg/kg/injection, schedule: Q01DX001 (ip), vehicle: saline with Tween-80) was 102 % of control [survivor count not shown], the T/C (dose: 200.0 mg/kg/injection, schedule: Q01DX001 (ip), vehicle: saline with Tween-80) was 98 % of control [survivor count not shown] and the T/C (dose: 400.0 mg/kg/injection, schedule: Q01DX001 (ip), vehicle: saline with Tween-80) was 98 % of control [survivor count not shown].
`CCNP(=O)(OCCC=O)N(CCCl)CCCl` (centres undefined) was tested, and the T/C [10] was 109 % of control, the T/C [11] was 112 % of control and the T/C (dose: 266.0 mg/kg/injection, schedule: Q01DX001 (ip), vehicle: DMSO) was 98 % of control. The T/C (dose: 400.0 mg/kg/injection, schedule: Q01DX001 (ip), vehicle: DMSO) was 97 % of control, the T/C [12] was 125 % of control and the T/C (dose: 600.0 mg/kg/injection, schedule: Q01DX001 (ip), vehicle: DMSO) was 106 % of control. For the same molecule, the survivor count (dose: 900.0 mg/kg/injection, schedule: Q01DX001 (ip), vehicle: DMSO) was 2 of 6.
In the case of `CN(CCCl)N=O`, the T/C (dose: 75.0 mg/kg/injection, schedule: Q01DX001 (ip), vehicle: saline) is reported as 100 % of control, the T/C (dose: 150.0 mg/kg/injection, schedule: Q01DX001 (ip), vehicle: saline) is reported as 101 % of control and the T/C (dose: 300.0 mg/kg/injection, schedule: Q01DX001 (ip), vehicle: saline) is reported as 105 % of control.
`NC(=O)CCCc1ccc(N(CCCl)CCCl)cc1` was tested, and the T/C (dose: 8.3 mg/kg/injection, schedule: Q01DX009 (ip), vehicle: saline) was 111 % of control, the T/C (dose: 12.5 mg/kg/injection, schedule: Q01DX009 (ip), vehicle: saline) was 127 % of control and the T/C (dose: 18.8 mg/kg/injection, schedule: Q01DX009 (ip), vehicle: saline) was 132 % of control. The T/C (dose: 28.2 mg/kg/injection, schedule: Q01DX009 (ip), vehicle: saline) was 142 % of control.
For `NP(=O)(OCCC1CO1)N(CCCl)CCCl` (centres undefined), the T/C (dose: 15.63 mg/kg/injection, schedule: Q01DX001 (ip), vehicle: DMSO) was 98 % of control, the T/C [8] was 101 % of control and the T/C [9] was 109 % of control. The T/C [10] was 101 % of control, the T/C [11] was 97 % of control and the T/C [12] was 104 % of control. The T/C (dose: 1000.0 mg/kg/injection, schedule: Q01DX001 (ip), vehicle: DMSO) was 106 % of control.

Source: PubChem BioAssay AID256 (DTP/NCI, 2004)
